The values below come from the supplement of paper PMC9549374.

Some of the results follow. No stated cut-off is given here; in the data, active = 2-fold of DMSO or more and inactive = the rest. Single values of this set are uncertain. Some low values are a fixed figure set by the source, not a measured ratio.

In this experiment the test system is CM7/1-hgem mouse ES cell-derived cardiomyocytes. Kind of experiment: maximal number of mAG-hGem(1/110)-positive cardiomyocytes over 96 h, fold-change vs DMSO; higher = more cardiomyocyte cell cycle activity. Particulars: 1 µM; 96 (max over 12 h time points) h.
As for `Nc1ccn([C@H]2CC[C@@H](CO)O2)c(=O)n1`, the maximal number is inactive: 1. The result for `CC(C)=CC1C(C(=O)O)C1(C)C` (stereo not drawn) reads inactive: 1; that for `CC(=O)O[C@H]1C[C@@H](OC(C)=O)C(C)(C)C2CC(=O)[C@]3(C)C(CC[C@@]4(C)[C@H](C(=O)O)OC(=O)C5OC543)[C@]21C` (stereo partly drawn), inactive: 1; that for `O=C1c2ccccc2C(=O)C1c1ccc(C(F)(F)F)cc1`, inactive: 1.

Take `COC1=C(OC)C(=O)C(CCCCCCCCCCO)=C(C)C1=O`: the maximal number was active: 3. Consider `COc1ccc2c(c1)OCC(Cc1ccc(O)c(OC)c1)C2=O` (stereo not drawn), for which the maximal number was inactive: 1. Take `C=C1[C@H]2CC[C@@]3(C)[C@H](c4ccoc4)OC(=O)C[C@]13O[C@H]1C[C@H](O)C(C)(C)[C@H](CC(=O)OC)[C@]12C` [3-DEOXY-3beta-HYDROXYANGOLENSIC ACID METHYL ESTER]: the maximal number is inactive: 0. `COC1=CC(=O)C(C(=O)c2ccccc2)=CC1=O`: the maximal number was inactive: 1.

Take `CCCN(CCC)C(=O)C(CCC(=O)O)NC(=O)c1ccccc1` (stereo not drawn): the maximal number was inactive: 1. The result for `COC1(C)CCC2OC2(C)CCC2C1CC2(C)C` (stereo not drawn) reads inactive: 0; that for `COc1cc2c(cc1OC)[C@@H]1C(=O)c3ccc4c(c3O[C@@H]1CO2)C=CC(C)(C)O4`, inactive: 0.5; that for `CC1=C(C)C(=O)C(C(CCCCCC(=O)O)c2ccccc2)=C(C)C1=O` (stereo not drawn), inactive: 1.

As to `C[C@@](Cc1ccc(O)c(O)c1)(NN)C(=O)O`, the maximal number is inactive: 1. The result for `O=C(CCCN1CCN(c2ccccn2)CC1)c1ccc(F)cc1` reads inactive: 1; that for `Fc1ccc(C(c2ccc(F)cc2)N2CCN(C/C=C/c3ccccc3)CC2)cc1`, inactive: 1. The result for `CC1(C)[C@H](C(=O)O)N2C(=O)C[C@H]2S1(=O)=O` reads inactive: 1; that for `CCN(CC)CCNC(=O)COc1ccc(OC)cc1`, inactive: 0; that for `CC(=O)Oc1cc2c(s1)CCN(C(C(=O)C1CC1)c1ccccc1F)C2` (stereo not drawn), inactive: 1. With `COc1ccc(-c2cc(=O)c3c(O)c(OC)c(O[C@@H]4O[C@H](CO[C@@H]5O[C@@H](C)[C@H](O)[C@@H](O)[C@H]5O)[C@@H](O)[C@H](O)[C@H]4O)cc3o2)cc1`, the maximal number was inactive: 1.

For the molecule `CC(=O)O[C@H]1C[C@@H](O)C(C)(C)[C@@H]2C[C@@H](OC(C)=O)[C@]3(C)[C@H](CC[C@@]4(C)[C@@H](c5ccoc5)OC(=O)[C@H]5O[C@@]534)[C@@]12C`, the maximal number is inactive: 1. Under `Cc1ccc2c(Cl)cc(Cl)c(O)c2n1` stands inactive: 1; under `CC[C@H](/C=C/[C@@H](C)[C@H]1CC[C@H]2[C@@H]3CC=C4C[C@@H](O)CC[C@]4(C)[C@H]3CC[C@]12C)C(C)C`, inactive: 1. On to `COc1ccc(C(=O)/C=C/c2ccccc2)cc1`, for which the maximal number is inactive: 1. In the case of `Cc1cccc(C)c1NC(=O)c1ccccc1C(=O)O`, the maximal number is inactive: 0.5. The result for `C=CC(C1=CC(=O)C(OC)=CC1=O)c1ccc(O)cc1` (stereo not drawn) reads inactive: 1.

Turning to `CC1=CC(=O)c2ccccc2C1=O`, the maximal number is inactive: 1.

Regarding `C[C@]12CC[C@@H]3c4ccc(O)cc4CC[C@H]3[C@@H]1C[C@H](O)[C@@H]2O`, the maximal number was inactive: 1. Under `COc1ccc([C@@H]2Sc3ccccc3N(CCN(C)C)C(=O)[C@@H]2OC(C)=O)cc1` stands inactive: 1.

For `C=C[C@]1(C)C[C@@H](OC(=O)CS[C@@H]2C[C@H]3CC[C@@H](C2)N3C)[C@]2(C)[C@H](C)CC[C@]3(CCC(=O)[C@H]32)[C@@H](C)[C@@H]1O`, the maximal number was inactive: 1.

With `Nc1ccn([C@@H]2O[C@H](CO)[C@@H](O)[C@H]2O)c(=O)n1`, the maximal number was inactive: 1. On to `O=NN(CCCl)C(=O)NC1CCCCC1`, for which the maximal number was inactive: 1. Consider `O=C(O)/C=C/c1ccc(O)c(O)c1`, for which the maximal number was inactive: 1. As to `COC(=O)C1=C(C)NC(C)=C(C(=O)OC(C)C)C1c1cccc2nonc12` (stereo not drawn), the maximal number was inactive: 1. In the case of `CC(=O)O[C@H]1C[C@@H](OC(C)=O)C(C)(C)[C@@H]2CC(=O)[C@]3(C)[C@H](CC[C@@]4(C)[C@H](c5ccoc5)OC(=O)[C@H]5O[C@]543)[C@@]12C`, the maximal number is inactive: 1. For the molecule `CC12CCCC(O)(C1)C1CC(C)(C)C1CC2` (stereo not drawn) [beta-CARYOPHYLLENE ALCOHOL], the maximal number was inactive: 1. Under `O=C(/C=C/c1ccccc1)c1ccc(O[C@@H]2O[C@H](CO)[C@@H](O)[C@H](O)[C@H]2O)cc1O` stands inactive: 0.5. For `CC(=O)O[C@H]1CC[C@]2(C)[C@H]3CC[C@@]4(C)[C@H](c5ccoc5)OC(=O)[C@H]5O[C@]54[C@]3(C)[C@H](OC(C)=O)C[C@H]2C1(C)C` [3beta-ACETOXYDEOXODIHYDROGEDUNIN], the maximal number is inactive: 1. Turning to `COc1c(C)c2c(c(O)c1C/C=C(\C)CCC(=O)OCCN1CCOCC1)C(=O)OC2`, the maximal number is inactive: 1.
